Substitutions are numbered along the chain they refer to. No constants are given. Whether binding was seen depends on the method and setting.
B1: clone 2 (17.022), yeast-displayed scFv (scFv, V domains shown)
VH: EIQLQQSGPELRRPGSSVKLSCKASGYNITDYLIHWVRHRPEHGLEWIGWIDPEDGETRYAQKFQSKATLTADTSSNAAYMQLSSLTPEDTATYFCARSLDSTWIYPFAYWGQGTLVTVSS
VL: DIVMTQSPFSLAVSEGEMVTINCKSSQSLLRSGNQKNYLAWYQQKPGQSPKLLIYYASTGQSGVPDRFIGSGSGTDFTLTISDVQAEDLADYYCLQHYITPPTFGAGTKLELK
B2: clone 4 (17.023), yeast-displayed scFv (scFv, V domains shown)
VH: B1 VH with S99Q, W104Y
VL: B1 VL
B3: clone 5 (17.030), yeast-displayed scFv (scFv, V domains shown)
VH: B1 VH with W104Y, I105D
VL: B1 VL with T100S
B4: clone 1 (17.021), yeast-displayed scFv (scFv, V domains shown)
VH: B1 VH with Y32N, W104Y
VL: B1 VL with I99Q, T100S
B5: clone 6 (17.035), yeast-displayed scFv (scFv, V domains shown)
VH: B1 VH with W104Y, I105N
VL: B1 VL with Y98W, T100S

The binders below were run against PD1 (assay: yeast surface display, labeling with a mixture of TNFR2, OX40 and PD1, flow cytometry).

binding, no binding (tested: 500 nM):
B1, B2, B3, B4, B5

Each binder was assayed against OX40 in the same assay as above.

binding, no binding (tested: 500 nM):
B1, B2, B3, B4, B5

These binders were tested against soluble TNFR2 in the same assay as above.

binding, no binding (tested: 500 nM):
B1, B2, B3, B4, B5

The binders below were run against PD1 (assay: yeast surface display flow cytometry, labeled with the 500 nM OX40/PD-1/TNFR2 mixture).

binding, no binding (tested: 500 nM):
B1, B2, B3, B4, B5

These binders were tested against OX40 in the same assay as above.

binding, no binding (tested: 500 nM):
B1, B2, B3, B4, B5

What follows are binders tested against soluble TNFR2 in the same assay as above.

binding, no binding (tested: 500 nM):
B1, B2, B3, B4, B5
